Experimental data as given in the supplement of paper PMC12819154, “High-throughput peptide-centric local stability assay extends protein–ligand identification to membrane proteins, tissues and bacteria” (Nature Structural & Molecular Biology, 2025).
Some of the results follow. Most entries show no effect beyond the scatter of the controls.

Sequences of proteins named here, by UniProt entry; tags and fusion partners are left off. A change or cut given only in a name is not applied to a line headed by its entry.
UniProt Q07617: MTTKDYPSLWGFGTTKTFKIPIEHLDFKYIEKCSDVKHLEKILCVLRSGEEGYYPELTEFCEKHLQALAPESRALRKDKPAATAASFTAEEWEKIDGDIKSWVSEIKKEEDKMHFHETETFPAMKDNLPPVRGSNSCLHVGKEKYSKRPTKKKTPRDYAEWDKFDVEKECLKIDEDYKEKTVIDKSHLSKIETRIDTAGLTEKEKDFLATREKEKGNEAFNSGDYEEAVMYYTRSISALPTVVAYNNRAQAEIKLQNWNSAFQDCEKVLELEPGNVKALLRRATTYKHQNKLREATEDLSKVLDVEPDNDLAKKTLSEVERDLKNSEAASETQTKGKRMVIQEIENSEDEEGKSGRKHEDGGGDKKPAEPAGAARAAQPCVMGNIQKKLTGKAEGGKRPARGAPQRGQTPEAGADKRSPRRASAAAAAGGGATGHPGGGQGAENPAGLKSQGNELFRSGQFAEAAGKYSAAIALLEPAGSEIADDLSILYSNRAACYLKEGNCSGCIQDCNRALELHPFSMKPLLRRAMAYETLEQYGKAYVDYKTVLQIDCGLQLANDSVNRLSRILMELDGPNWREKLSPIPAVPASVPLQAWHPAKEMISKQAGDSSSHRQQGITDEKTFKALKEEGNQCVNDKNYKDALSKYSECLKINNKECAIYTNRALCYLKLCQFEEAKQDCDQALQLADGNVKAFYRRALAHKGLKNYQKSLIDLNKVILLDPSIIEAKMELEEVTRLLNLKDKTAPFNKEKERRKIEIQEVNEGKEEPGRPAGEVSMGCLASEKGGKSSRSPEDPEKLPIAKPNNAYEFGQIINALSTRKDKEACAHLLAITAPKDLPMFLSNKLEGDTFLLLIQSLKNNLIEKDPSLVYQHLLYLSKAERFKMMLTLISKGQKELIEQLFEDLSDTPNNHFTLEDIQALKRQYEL
UniProt Q12968: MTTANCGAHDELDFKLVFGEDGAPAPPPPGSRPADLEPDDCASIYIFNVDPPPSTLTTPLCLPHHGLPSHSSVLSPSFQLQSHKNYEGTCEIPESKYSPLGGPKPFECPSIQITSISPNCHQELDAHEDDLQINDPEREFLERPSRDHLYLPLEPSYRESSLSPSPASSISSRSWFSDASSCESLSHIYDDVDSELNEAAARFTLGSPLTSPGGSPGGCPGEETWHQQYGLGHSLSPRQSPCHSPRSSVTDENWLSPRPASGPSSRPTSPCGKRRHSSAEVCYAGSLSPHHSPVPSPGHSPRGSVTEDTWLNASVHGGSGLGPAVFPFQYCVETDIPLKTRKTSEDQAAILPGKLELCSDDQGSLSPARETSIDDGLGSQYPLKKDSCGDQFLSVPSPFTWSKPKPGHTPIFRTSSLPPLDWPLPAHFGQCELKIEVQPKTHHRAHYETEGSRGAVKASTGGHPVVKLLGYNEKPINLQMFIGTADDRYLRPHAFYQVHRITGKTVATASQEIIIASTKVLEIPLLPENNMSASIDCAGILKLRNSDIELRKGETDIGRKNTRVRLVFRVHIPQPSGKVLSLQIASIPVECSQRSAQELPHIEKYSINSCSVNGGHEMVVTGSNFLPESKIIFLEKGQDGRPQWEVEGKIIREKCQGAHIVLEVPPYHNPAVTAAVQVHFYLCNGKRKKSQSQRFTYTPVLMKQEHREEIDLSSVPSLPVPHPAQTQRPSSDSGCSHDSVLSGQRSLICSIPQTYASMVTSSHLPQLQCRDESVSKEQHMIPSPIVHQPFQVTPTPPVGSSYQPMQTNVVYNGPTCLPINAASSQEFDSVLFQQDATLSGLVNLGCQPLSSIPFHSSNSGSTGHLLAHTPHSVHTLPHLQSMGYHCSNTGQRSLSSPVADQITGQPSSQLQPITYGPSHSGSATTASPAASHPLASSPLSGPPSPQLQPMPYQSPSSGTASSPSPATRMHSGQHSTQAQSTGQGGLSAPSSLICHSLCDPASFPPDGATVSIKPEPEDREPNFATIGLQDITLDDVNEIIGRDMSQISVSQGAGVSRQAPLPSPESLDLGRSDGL
UniProt Q09MP3: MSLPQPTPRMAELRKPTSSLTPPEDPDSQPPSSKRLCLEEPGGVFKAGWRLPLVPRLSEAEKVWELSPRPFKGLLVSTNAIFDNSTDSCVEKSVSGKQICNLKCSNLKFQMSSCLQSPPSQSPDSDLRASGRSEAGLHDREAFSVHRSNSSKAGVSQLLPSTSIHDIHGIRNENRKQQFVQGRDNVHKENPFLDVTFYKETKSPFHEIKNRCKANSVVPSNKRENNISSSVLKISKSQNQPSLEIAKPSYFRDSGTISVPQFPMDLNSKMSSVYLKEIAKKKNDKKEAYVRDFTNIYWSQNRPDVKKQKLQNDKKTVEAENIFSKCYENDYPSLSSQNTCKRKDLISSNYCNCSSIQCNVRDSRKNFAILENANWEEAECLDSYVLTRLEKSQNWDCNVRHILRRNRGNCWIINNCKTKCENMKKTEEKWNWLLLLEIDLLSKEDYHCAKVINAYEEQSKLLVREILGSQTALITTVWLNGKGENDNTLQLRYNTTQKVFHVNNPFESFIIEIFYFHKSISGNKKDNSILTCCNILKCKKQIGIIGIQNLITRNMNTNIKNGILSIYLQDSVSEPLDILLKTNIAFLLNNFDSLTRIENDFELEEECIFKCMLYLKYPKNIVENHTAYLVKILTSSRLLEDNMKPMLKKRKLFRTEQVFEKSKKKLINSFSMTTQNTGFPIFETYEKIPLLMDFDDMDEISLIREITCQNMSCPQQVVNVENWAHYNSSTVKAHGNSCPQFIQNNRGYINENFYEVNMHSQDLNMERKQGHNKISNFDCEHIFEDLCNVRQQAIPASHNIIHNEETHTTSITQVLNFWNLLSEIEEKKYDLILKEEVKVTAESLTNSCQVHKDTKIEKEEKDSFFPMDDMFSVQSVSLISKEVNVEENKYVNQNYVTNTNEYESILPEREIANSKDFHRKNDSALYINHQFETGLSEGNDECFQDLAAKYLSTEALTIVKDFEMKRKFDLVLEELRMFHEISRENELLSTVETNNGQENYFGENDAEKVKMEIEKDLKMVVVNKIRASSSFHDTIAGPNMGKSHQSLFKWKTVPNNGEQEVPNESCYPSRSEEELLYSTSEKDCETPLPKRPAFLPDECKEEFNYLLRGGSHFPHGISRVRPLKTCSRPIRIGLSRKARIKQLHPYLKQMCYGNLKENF
UniProt Q00536: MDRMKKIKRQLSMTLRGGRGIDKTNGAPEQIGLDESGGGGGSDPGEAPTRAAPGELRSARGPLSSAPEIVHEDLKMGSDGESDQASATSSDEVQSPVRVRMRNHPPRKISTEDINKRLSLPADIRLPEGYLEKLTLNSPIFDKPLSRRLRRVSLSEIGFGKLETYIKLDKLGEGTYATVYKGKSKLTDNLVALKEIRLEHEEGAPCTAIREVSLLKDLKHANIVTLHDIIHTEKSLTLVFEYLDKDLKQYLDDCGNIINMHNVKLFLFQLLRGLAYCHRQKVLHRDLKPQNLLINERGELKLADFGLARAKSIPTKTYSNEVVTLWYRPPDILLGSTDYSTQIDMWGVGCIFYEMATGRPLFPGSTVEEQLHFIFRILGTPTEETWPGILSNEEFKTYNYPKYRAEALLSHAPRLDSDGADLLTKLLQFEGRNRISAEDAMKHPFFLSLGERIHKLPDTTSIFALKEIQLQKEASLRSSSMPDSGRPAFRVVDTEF
UniProt Q12851: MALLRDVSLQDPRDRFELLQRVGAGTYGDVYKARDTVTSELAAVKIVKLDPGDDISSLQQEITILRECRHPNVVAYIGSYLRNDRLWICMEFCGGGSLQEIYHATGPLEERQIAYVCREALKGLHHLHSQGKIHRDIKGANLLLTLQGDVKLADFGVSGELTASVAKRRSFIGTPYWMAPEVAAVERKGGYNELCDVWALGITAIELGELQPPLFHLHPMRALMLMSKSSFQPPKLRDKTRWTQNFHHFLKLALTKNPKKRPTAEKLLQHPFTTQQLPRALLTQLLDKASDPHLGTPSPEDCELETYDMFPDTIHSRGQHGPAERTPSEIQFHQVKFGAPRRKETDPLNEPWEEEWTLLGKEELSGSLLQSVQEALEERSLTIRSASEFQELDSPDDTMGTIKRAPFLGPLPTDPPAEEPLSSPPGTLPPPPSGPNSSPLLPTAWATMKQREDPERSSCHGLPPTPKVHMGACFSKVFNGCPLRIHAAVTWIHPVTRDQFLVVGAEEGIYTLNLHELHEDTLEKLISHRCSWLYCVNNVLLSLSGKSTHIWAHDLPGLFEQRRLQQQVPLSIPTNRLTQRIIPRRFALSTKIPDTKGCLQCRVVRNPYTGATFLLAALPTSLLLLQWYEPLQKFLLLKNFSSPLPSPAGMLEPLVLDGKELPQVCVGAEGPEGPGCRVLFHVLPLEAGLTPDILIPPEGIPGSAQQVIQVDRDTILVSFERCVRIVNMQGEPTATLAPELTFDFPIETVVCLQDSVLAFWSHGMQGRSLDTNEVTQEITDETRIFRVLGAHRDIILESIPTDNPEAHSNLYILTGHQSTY
UniProt Q00765: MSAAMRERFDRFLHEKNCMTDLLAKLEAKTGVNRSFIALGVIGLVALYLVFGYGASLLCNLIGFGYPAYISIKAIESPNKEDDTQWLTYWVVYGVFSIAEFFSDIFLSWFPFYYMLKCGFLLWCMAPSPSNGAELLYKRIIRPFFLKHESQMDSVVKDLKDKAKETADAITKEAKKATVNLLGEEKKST
UniProt Q08AG7, whole entry: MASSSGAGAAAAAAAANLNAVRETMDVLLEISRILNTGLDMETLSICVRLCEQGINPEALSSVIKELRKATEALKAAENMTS
UniProt Q01130: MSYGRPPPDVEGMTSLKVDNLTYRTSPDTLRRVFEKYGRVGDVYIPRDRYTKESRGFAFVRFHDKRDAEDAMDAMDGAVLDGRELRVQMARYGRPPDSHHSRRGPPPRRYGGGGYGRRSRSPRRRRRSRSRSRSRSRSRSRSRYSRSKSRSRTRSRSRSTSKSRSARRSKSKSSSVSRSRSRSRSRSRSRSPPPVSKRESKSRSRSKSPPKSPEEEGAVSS
UniProt Q0VG06: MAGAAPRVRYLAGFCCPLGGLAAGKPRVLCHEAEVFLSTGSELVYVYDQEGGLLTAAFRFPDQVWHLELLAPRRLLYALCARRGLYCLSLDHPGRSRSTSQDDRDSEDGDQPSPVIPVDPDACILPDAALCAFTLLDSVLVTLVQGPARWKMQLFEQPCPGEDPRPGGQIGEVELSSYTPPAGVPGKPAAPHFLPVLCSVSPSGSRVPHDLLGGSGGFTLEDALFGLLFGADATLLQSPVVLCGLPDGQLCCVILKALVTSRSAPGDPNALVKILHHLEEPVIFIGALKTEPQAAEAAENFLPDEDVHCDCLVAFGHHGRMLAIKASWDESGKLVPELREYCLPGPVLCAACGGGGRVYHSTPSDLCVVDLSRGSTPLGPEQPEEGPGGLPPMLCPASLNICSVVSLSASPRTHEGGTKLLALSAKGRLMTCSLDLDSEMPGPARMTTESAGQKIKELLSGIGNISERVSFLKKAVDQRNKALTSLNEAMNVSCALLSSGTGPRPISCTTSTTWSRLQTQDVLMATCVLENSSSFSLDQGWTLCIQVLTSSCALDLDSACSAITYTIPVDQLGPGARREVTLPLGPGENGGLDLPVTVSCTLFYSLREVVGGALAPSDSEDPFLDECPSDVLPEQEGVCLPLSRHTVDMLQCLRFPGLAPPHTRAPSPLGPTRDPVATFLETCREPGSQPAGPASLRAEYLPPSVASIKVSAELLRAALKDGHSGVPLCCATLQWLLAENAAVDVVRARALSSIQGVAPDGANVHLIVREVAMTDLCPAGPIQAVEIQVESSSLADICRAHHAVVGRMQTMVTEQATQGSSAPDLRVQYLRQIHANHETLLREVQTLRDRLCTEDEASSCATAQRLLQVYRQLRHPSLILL
UniProt Q02040: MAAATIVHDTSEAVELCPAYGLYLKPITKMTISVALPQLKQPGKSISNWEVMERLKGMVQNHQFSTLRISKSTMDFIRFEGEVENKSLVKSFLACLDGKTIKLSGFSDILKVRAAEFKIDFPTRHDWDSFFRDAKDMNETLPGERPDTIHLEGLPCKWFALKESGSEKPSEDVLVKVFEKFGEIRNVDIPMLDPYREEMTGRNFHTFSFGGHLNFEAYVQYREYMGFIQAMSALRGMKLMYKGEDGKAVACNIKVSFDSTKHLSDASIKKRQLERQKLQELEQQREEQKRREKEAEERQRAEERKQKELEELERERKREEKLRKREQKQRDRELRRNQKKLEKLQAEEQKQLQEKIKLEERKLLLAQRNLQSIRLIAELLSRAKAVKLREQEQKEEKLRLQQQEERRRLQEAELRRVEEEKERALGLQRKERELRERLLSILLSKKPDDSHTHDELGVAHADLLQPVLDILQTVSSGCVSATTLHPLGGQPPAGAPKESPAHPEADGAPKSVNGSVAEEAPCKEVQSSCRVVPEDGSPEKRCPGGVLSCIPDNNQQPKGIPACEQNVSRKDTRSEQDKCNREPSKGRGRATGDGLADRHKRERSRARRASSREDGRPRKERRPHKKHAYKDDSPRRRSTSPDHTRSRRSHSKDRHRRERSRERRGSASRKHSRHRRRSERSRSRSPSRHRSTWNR

What follows are targets tested with Cc1nc(Nc2ncc(C(=O)Nc3c(C)cccc3Cl)s2)cc(N2CCN(CCO)CC2)n1 [dasatinib] (assay: log2 fold change of tryptic peptide abundance, ligand vs vehicle (limited proteolysis) (log2 ratio); higher = more trypsin-susceptible (destabilized)). Details: ligand concentration: 5 uM; sample: K562 cleared lysate.
“SPAG1 (peptide sequence: KDKEACAHLLAITAPK, peptide start residue: 820) (UniProt Q07617)” showed a log2 fold change of 0.466.
For “MBTD1 (peptide sequence: VAVVESVIGGR, peptide start residue: 304) (UniProt Q05BQ5)”, the log2 fold change was 0.341.
With “UniProt Q0P6D6 (peptide sequence: EQECYAAEQR, peptide start residue: 810)” the log2 fold change was 0.213.
In the case of “EWSR1 (peptide sequence: TGQPMIHIYLDK, peptide start residue: 393) (UniProt Q01844)”, the log2 fold change was 0.293.
Work on “MEF2C (peptide sequence: SPPPMNLGMNNR, peptide start residue: 240) (UniProt Q06413)” yielded a log2 fold change of -0.176.
“NFATC3 (peptide sequence: FTYTPVLMK, peptide start residue: 695) (UniProt Q12968)” was tested, and the log2 fold change was 0.242.
Target “UniProt Q09MP3 (peptide sequence: KQKLQNDK, peptide start residue: 307)” has a log2 fold change of 0.32.
Target “UniProt Q00536 (peptide sequence: ISAEDAMKHPFFLSLGER, peptide start residue: 435)” has a log2 fold change of 0.657.
Work on “GSTM4 (peptide sequence: KYTMGDAPDYDR, peptide start residue: 32) (UniProt Q03013)” yielded a log2 fold change of -0.291.
With “SCAP (peptide sequence: QLAVRPSTPHTITLQPSSFR, peptide start residue: 477) (UniProt Q12770)” the log2 fold change was 0.216.
In the case of “AHNAK (peptide sequence: VKGGVDVTLPR, peptide start residue: 583) (UniProt Q09666)”, the log2 fold change was -0.648.
“STX4 (peptide sequence: QALNEISAR, peptide start residue: 198) (UniProt Q12846)” gave a log2 fold change of 0.226.
“GLO1 (peptide sequence: GFGHIGIAVPDVYSACKR, peptide start residue: 124) (UniProt Q04760)” gave a log2 fold change of 0.157.
For “FOXK2 (peptide sequence: EKQEASESPVK, peptide start residue: 163) (UniProt Q01167)”, the log2 fold change was -0.488.
In the case of “SCRN3 (peptide sequence: KGWWDGKK, peptide start residue: 210) (UniProt Q0VDG4)”, the log2 fold change was -0.695.
“NUCB1 (peptide sequence: YEMLKEHERR, peptide start residue: 179) (UniProt Q02818)” showed a log2 fold change of 0.713.
In the case of “KIF5A (peptide sequence: SAEMEPEDSGGIHSQK, peptide start residue: 812) (UniProt Q12840)”, the log2 fold change was 0.112.
For “SSRP1 (peptide sequence: SKEFVSSDESSSGENK, peptide start residue: 662) (UniProt Q08945)”, the log2 fold change was 0.499.
With “CDC16 (peptide sequence: LKCYDFDVHTMK, peptide start residue: 542) (UniProt Q13042)” the log2 fold change was -0.265.
“RBM3 (peptide sequence: SRGFGFITFTNPEHASVAMR, peptide start residue: 46) (UniProt P98179)” was tested, and the log2 fold change was -0.553.
“ANK3 (peptide sequence: NANVNLSNK, peptide start residue: 687) (UniProt Q12955)” was tested, and the log2 fold change was 0.643.
Work on “UniProt P84101 (peptide sequence: DSEIMQQK, peptide start residue: 40)” yielded a log2 fold change of 0.103.
“MAP4K2 (peptide sequence: VGAGTYGDVYK, peptide start residue: 22) (UniProt Q12851)” showed a log2 fold change of -0.618.
For “REEP5 (peptide sequence: AKETADAITK, peptide start residue: 163) (UniProt Q00765)”, the log2 fold change was -0.068.
With “UniProt Q03181 (peptide sequence: CLALGMSHNAIR, peptide start residue: 133)” the log2 fold change was -0.147.
In the case of “C13ORF37 (peptide sequence: ETMDVLLEISR, peptide start residue: 23) (UniProt Q08AG7)”, the log2 fold change was 0.0255.
“VAC14 (peptide sequence: FMINLLKR, peptide start residue: 530) (UniProt Q08AM6)” showed a log2 fold change of -0.353.
“RBM10 (peptide sequence: SEAEQKLPLGTR, peptide start residue: 241) (UniProt P98175)” was tested, and the log2 fold change was -0.564.
In the case of “UniProt Q01130 (peptide sequence: TSPDTLRR, peptide start residue: 25)”, the log2 fold change was 0.0687.
Target “UniProt Q0VG06 (peptide sequence: DRLCTEDEASSCATAQR, peptide start residue: 849)” has a log2 fold change of 0.472.
With “TJP1 (peptide sequence: THFEYEKESPYGLSFNKGEVFR, peptide start residue: 523) (UniProt Q07157)” the log2 fold change was 0.215.
Work on “MPP1 (peptide sequence: LPALQMFMR, peptide start residue: 156) (UniProt Q00013)” yielded a log2 fold change of -0.103.
With “UniProt Q02040 (peptide sequence: SISNWEVMER, peptide start residue: 45)” the log2 fold change was 0.227.
With “RPL18A (peptide sequence: SGTHNMYREYR, peptide start residue: 88) (UniProt Q02543)” the log2 fold change was 0.27.
With “TLE3 (peptide sequence: TKDLGHNDKSSTPGLK, peptide start residue: 301) (UniProt Q04726)” the log2 fold change was -0.506.
For “TLE4 (peptide sequence: SSSVSPSASFR, peptide start residue: 204) (UniProt Q04727)”, the log2 fold change was 0.347.
With “UniProt Q03164 (peptide sequence: NLMLPDGPKPQEDGSFK, peptide start residue: 2597)” the log2 fold change was -0.383.
